Test results reported in paper PMC8896392.

Assays:
Assay in all cases: affinity purification with mass spectrometry; Flag-KRAS (WT or mutant) precipitated from 800 µg of transfected Caco-2 lysate with anti-Flag-M2 magnetic beads (KingFisher), 1 h; washes in RIPA buffer with 150 mM and 500 mM NaCl; elution in 0.1 M glycine pH 3.0; timsTOF Pro, MaxQuant LFQ
KRAS G12D = KRAS G12D (UniProt P01116)
KRAS G12V = KRAS G12V (UniProt P01116)
KRAS wildtype = KRAS wildtype (UniProt P01116)

Measured: binding

B1: RIN2 (protein, UniProt Q8WYP3 1-895)
chain: MTAWTMGARGLDKRGSFFKLIDTIASEIGELKQEMVRTDVNLENGLEPAETHSMVRHKDGGYSEEEDVKTCARDSGYDSLSNRLSILDRLLHTHPIWLQLSLSEEEAAEVLQAQPPGIFLVHKSTKMQKKVLSLRLPCEFGAPLKEFAIKESTYTFSLEGSGISFADLFRLIAFYCISRDVLPFTLKLPYAISTAKSEAQLEELAQMGLNFWSSPADSKPPNLPPPHRPLSSDGVCPASLRQLCLINGVHSIKTRTPSELECSQTNGALCFINPLFLKVHSQDLSGGLKRPSTRTPNANGTERTRSPPPRPPPPAINSLHTSPRLARTETQTSMPETVNHNKHGNVALPGTKPTPIPPPRLKKQASFLEAEGGAKTLSGGRPGAGPELELGTAGSPGGAPPEAAPGDCTRAPPPSSESRPPCHGGRQRLSDMSISTSSSDSLEFDRSMPLFGYEADTNSSLEDYEGESDQETMAPPIKSKKKRSSSFVLPKLVKSQLQKVSGVFSSFMTPEKRMVRRIAELSRDKCTYFGCLVQDYVSFLQENKECHVSSTDMLQTIRQFMTQVKNYLSQSSELDPPIESLIPEDQIDVVLEKAMHKCILKPLKGHVEAMLKDFHMADGSWKQLKENLQLVRQRNPQELGVFAPTPDFVDVEKIKVKFMTMQKMYSPEKKVMLLLRVCKLIYTVMENNSGRMYGADDFLPVLTYVIAQCDMLELDTEIEYMMELLDPSLLHGEGGYYLTSAYGALSLIKNFQEEQAARLLSSETRDTLRQWHKRRTTNRTIPSVDDFQNYLRVAFQEVNSGCTGKTLLVRPYITTEDVCQICAEKFKVGDPEEYSLFLFVDETWQQLAEDTYPQKIKAELHSRPQPHIFHFVYKRIKNDPYGIIFQNGEEDLTTS
binds: all assays above

These are yes or no findings as the source states them, for the method shown. Binding seen in cells or lysates may run through a third protein. Here binding means that the protein was enriched with, or labelled near, the bait; the list need not be complete.
